In the supplement of paper PMC7238544:
Where a name gives a salt, the structure may show the parent alone. ± gives the standard deviation of the averaged measurements. Some of the results follow. The data scatter; read single values as rough.

Key:
hAMSC donor 1 [1] = test: Hoechst total cell count ratio vs vehicle control; higher = more cells (less toxicity)
hAMSC donor 2 [2] = test: as above
hAMSC donor 1 [3] = test: transgenic luciferase activity (RLU/mg protein) fold change vs vehicle control (ratio); higher = more transgene expression
hAMSC donor 2 [4] = test: as above
hAMSC donor 1 [5] = test: transfection efficiency (EGFP+ cells / Hoechst count) fold change vs vehicle control (ratio); hAMSC are human adipose-derived mesenchymal stem cells given an EGFP-luciferase plasmid by lipofection; higher = enhanced transfection
hAMSC donor 2 [6] = test: as above
[7] = priming compound concentration 0.2 µM
[8] = priming compound concentration 1.7 µM
[9] = priming compound concentration 13 µM

Structure (SMILES)	Hoechst total cell count ratio (hAMSC donor 1 [1]; [7])	Hoechst total cell count ratio (hAMSC donor 1 [1]; [8])	Hoechst total cell count ratio (hAMSC donor 1 [1]; [9])	Hoechst total cell count ratio (hAMSC donor 2 [2]; [7])	Hoechst total cell count ratio (hAMSC donor 2 [2]; [8])	Hoechst total cell count ratio (hAMSC donor 2 [2]; [9])	transgenic luciferase activity (hAMSC donor 1 [3]; [7])	transgenic luciferase activity (hAMSC donor 1 [3]; [9])	transgenic luciferase activity (hAMSC donor 2 [4]; [7])	transgenic luciferase activity (hAMSC donor 2 [4]; [8])	transfection efficiency (hAMSC donor 1 [5]; [7])	transfection efficiency (hAMSC donor 1 [5]; [8])	transfection efficiency (hAMSC donor 1 [5]; [9])	transfection efficiency (hAMSC donor 2 [6]; [7])	transfection efficiency (hAMSC donor 2 [6]; [8])	transfection efficiency (hAMSC donor 2 [6]; [9])	transgenic luciferase activity (hAMSC donor 1 [3]; [8])	transgenic luciferase activity (hAMSC donor 2 [4]; [9])
O=C(C1CCCCC1)N1CC(=O)N2CCc3ccccc3C2C1 (centres undefined) [Praziquantel]	1.31 ± 0.17	1.2 ± 0.11	1.29 ± 0.074	1.09 ± 0.09	0.772 ± 0.17	0.822 ± 0.13	0.37 ± 0.12	6.81 ± 3.5	0.789 ± 0.22	0.499 ± 0.23	1.19 ± 0.18	1.32 ± 0.14	1.46 ± 0.085	0.73 ± 0.088	1.35 ± 0.11	1.15 ± 0.33	–	–
CC12CC3CC(C)(C1)CC(N)(C3)C2 [Memantine hydrochloride]	1.46 ± 0.12	1.3 ± 0.15	1.34 ± 0.24	1.16 ± 0.14	0.829 ± 0.059	1.27 ± 0.26	0.51 ± 0.45	2.26 ± 2	0.785 ± 0.029	0.505 ± 0.053	1.35 ± 0.47	1.17 ± 0.22	1.06 ± 0.081	1.18 ± 0.19	1.13 ± 0.26	0.971 ± 0.23	–	–
CN(C)CCc1c[nH]c2ccc(C[C@H]3COC(=O)N3)cc12 [Zolmitriptan]	1.07 ± 0.19	1.54 ± 0.16	1.11 ± 0.18	1.22 ± 0.054	0.682 ± 0.015	0.906 ± 0.11	0.85 ± 0.5	–	–	0.456 ± 0.03	1.22 ± 0.2	1.08 ± 0.29	1.27 ± 0.27	0.834 ± 0.028	1.46 ± 0.054	1.24 ± 0.18	1.67 ± 0.25	0.431 ± 0.088
CCc1c(C)[nH]c2c1C(=O)C(CN1CCOCC1)CC2 (centres undefined) [Molindone hydrochloride]	1.13 ± 0.073	1.31 ± 0.066	1.26 ± 0.24	1.17 ± 0.094	0.833 ± 0.093	0.85 ± 0.12	0.607 ± 0.098	–	–	0.563 ± 0.077	1.23 ± 0.22	1.38 ± 0.14	1.15 ± 0.19	0.829 ± 0.07	1.47 ± 0.17	1.34 ± 0.083	0.937 ± 0.24	0.436 ± 0.07
CC(C)C(=O)Nc1ccc([N+](=O)[O-])c(C(F)(F)F)c1 [Flutamide]	1.1 ± 0.089	1.01 ± 0.14	0.725 ± 0.44	1.28 ± 0.039	0.912 ± 0.051	1.06 ± 0.06	1.08 ± 0.43	1.8 ± 0.93	0.664 ± 0.029	0.298 ± 0.16	1.35 ± 0.46	1.23 ± 0.31	0.919 ± 0.35	1.05 ± 0.17	1.76 ± 0.15	1.25 ± 0.069	–	–
NS(=O)(=O)c1cc2c(cc1Cl)N=CNS2(=O)=O [Chlorothiazide]	1.1 ± 0.074	1.29 ± 0.26	1.28 ± 0.3	1.07 ± 0.11	0.907 ± 0.12	0.51 ± 0.07	0.832 ± 0.72	–	–	0.669 ± 0.051	1.36 ± 0.085	1.26 ± 0.12	0.965 ± 0.2	0.933 ± 0.12	1.42 ± 0.24	1.76 ± 0.46	0.797 ± 0.21	0.488 ± 0.13
CC(=O)/N=c1/sc(S(N)(=O)=O)nn1C [Methazolamide]	1.36 ± 0.21	0.942 ± 0.021	0.867 ± 0.054	0.921 ± 0.17	1.15 ± 0.046	1.42 ± 0.29	–	0.87 ± 0.11	–	0.773 ± 0.028	0.977 ± 0.082	1.48 ± 0.21	1.87 ± 0.17	0.935 ± 0.25	1.25 ± 0.072	1.13 ± 0.013	1.26 ± 0.93	0.548 ± 0.074
Cc1nnc(SCC2=C(C(=O)O)N3C(=O)[C@@H](NC(=O)Cn4cnnn4)[C@H]3SC2)s1 [Cefazolin sodium]	1.15 ± 0.16	1.23 ± 0.071	1.05 ± 0.32	1.11 ± 0.049	0.852 ± 0.18	0.624 ± 0.27	0.661 ± 0.16	–	–	0.454 ± 0.027	0.937 ± 0.065	1.34 ± 0.2	1.19 ± 0.23	0.889 ± 0.11	1.39 ± 0.29	1.3 ± 0.68	1.12 ± 0.56	0.437 ± 0.16
COC(=O)Nc1nc2cc(C(=O)c3ccccc3)ccc2[nH]1 [Mebendazole]	1.13 ± 0.18	1.23 ± 0.23	1.14 ± 0.1	0.991 ± 0.064	0.753 ± 0.19	0.666 ± 0.12	0.591 ± 0.15	–	–	1.04 ± 0.75	1.03 ± 0.14	1.41 ± 0.054	0.989 ± 0.14	1.25 ± 0.21	1.13 ± 0.41	0.954 ± 0.21	0.768 ± 0.13	0.58 ± 0.31
Cc1ccc(Cl)c(Nc2ccccc2C(=O)O)c1Cl [Meclofenamic acid sodium salt]	1.19 ± 0.15	1.44 ± 0.14	1.15 ± 0.069	1.17 ± 0.25	0.868 ± 0.026	1.32 ± 0.4	0.629 ± 0.45	1.48 ± 1.2	0.876 ± 0.15	0.783 ± 0.38	1.73 ± 0.076	1.31 ± 0.3	0.949 ± 0.15	1.07 ± 0.11	1.22 ± 0.059	0.961 ± 0.21	–	–
Cc1ccc(C)c(OCCCC(C)(C)C(=O)O)c1 [Gemfibrozil]	1.25 ± 0.23	1.38 ± 0.2	1.26 ± 0.16	1.21 ± 0.12	0.907 ± 0.26	1.03 ± 0.16	0.508 ± 0.1	6.95 ± 2.3	0.666 ± 0.08	0.345 ± 0.079	1.36 ± 0.59	1.05 ± 0.22	1.47 ± 0.071	0.879 ± 0.099	1.2 ± 0.16	1.27 ± 0.21	–	–
COc1ccc([C@@H]2Sc3ccccc3N(CCN(C)C)C(=O)[C@@H]2OC(C)=O)cc1 [(+)-cis-Diltiazem hydrochloride]	1.15 ± 0.28	1.19 ± 0.1	1.46 ± 0.18	1.37 ± 0.054	0.853 ± 0.11	1.32 ± 0.058	0.951 ± 0.47	15.9 ± 1.1	0.774 ± 0.17	0.763 ± 0.11	1.48 ± 0.2	1.02 ± 0.15	1.37 ± 0.12	0.742 ± 0.022	1.84 ± 0.23	1.43 ± 0.092	–	–
CC[C@H](C)C(=O)O[C@H]1CCC=C2C=C[C@H](C)[C@H](CC[C@@H]3C[C@@H](O)CC(=O)O3)[C@H]21 [Mevastatin]	1.09 ± 0.32	1.06 ± 0.13	0.829 ± 0.15	0.571 ± 0.17	1.17 ± 0.12	0.992	–	0.832 ± 0.48	–	0.512 ± 0.15	1.29 ± 0.59	1.36 ± 0.65	1.63 ± 0.89	1.32 ± 0.34	1.07 ± 0.17	1.22 ± 0.41	0.73 ± 0.55	0.388 ± 0.091
N[C@@H](Cc1cc(I)c(Oc2cc(I)c(O)c(I)c2)c(I)c1)C(=O)O [L-Thyroxine]	1.39 ± 0.031	1.01 ± 0.21	1.14 ± 0.14	0.829 ± 0.29	1.12 ± 0.38	1 ± 0.19	–	1.29 ± 0.28	–	0.495 ± 0.057	0.734 ± 0.24	1.11 ± 0.26	1.38 ± 0.32	1.16 ± 0.43	1.18 ± 0.025	1.18 ± 0.29	0.257 ± 0.17	0.24 ± 0.074

Whole records, quoted from the list. Values in the order: Hoechst total cell count ratio (hAMSC donor 1 [1]; [7])	Hoechst total cell count ratio (hAMSC donor 1 [1]; [8])	Hoechst total cell count ratio (hAMSC donor 1 [1]; [9])	Hoechst total cell count ratio (hAMSC donor 2 [2]; [7])	Hoechst total cell count ratio (hAMSC donor 2 [2]; [8])	Hoechst total cell count ratio (hAMSC donor 2 [2]; [9])	transgenic luciferase activity (hAMSC donor 1 [3]; [7])	transgenic luciferase activity (hAMSC donor 1 [3]; [9])	transgenic luciferase activity (hAMSC donor 2 [4]; [7])	transgenic luciferase activity (hAMSC donor 2 [4]; [8])	transfection efficiency (hAMSC donor 1 [5]; [7])	transfection efficiency (hAMSC donor 1 [5]; [8])	transfection efficiency (hAMSC donor 1 [5]; [9])	transfection efficiency (hAMSC donor 2 [6]; [7])	transfection efficiency (hAMSC donor 2 [6]; [8])	transfection efficiency (hAMSC donor 2 [6]; [9])	transgenic luciferase activity (hAMSC donor 1 [3]; [8])	transgenic luciferase activity (hAMSC donor 2 [4]; [9])
N[C@@H](Cc1cc(I)c(Oc2cc(I)c(O)c(I)c2)c(I)c1)C(=O)O [L-Thyroxine] reads 1.39 ± 0.031	1.01 ± 0.21	1.14 ± 0.14	0.829 ± 0.29	1.12 ± 0.38	1 ± 0.19	–	1.29 ± 0.28	–	0.495 ± 0.057	0.734 ± 0.24	1.11 ± 0.26	1.38 ± 0.32	1.16 ± 0.43	1.18 ± 0.025	1.18 ± 0.29	0.257 ± 0.17	0.24 ± 0.074
NS(=O)(=O)c1cc2c(cc1Cl)N=CNS2(=O)=O [Chlorothiazide] reads 1.1 ± 0.074	1.29 ± 0.26	1.28 ± 0.3	1.07 ± 0.11	0.907 ± 0.12	0.51 ± 0.07	0.832 ± 0.72	–	–	0.669 ± 0.051	1.36 ± 0.085	1.26 ± 0.12	0.965 ± 0.2	0.933 ± 0.12	1.42 ± 0.24	1.76 ± 0.46	0.797 ± 0.21	0.488 ± 0.13
